PubChem BioAssay AID652272 – Drosophila RNAi Screening Center – 2013
In all, the deposit lists about 21,000 reagents; below is a random part of those that have a named target and a result. Of all reagents, 503 (2.4%) are marked active. 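Raw plate light values, not normalised; calls rest on replicate z-scores that were not deposited; hits include reporter decreases as well as increases.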 A plus sign joins genes that one reagent is predicted to hit. The record does not give: the amount of reagent, the time to read-out.

Aim: 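Genome-wide knock-down search for components of Hedgehog signalling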 (primary screen)
System: Drosophila clone 8 (Cl8) cells
Reagents: long dsRNA against Drosophila genes
Measurement: 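Firefly light from a Hedgehog-responsive ptc promoter reporter and Renilla reference light, both read on a plate reader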
Scale: firefly Hh reporter signal: higher = more ptc reporter light; Renilla reference signal: higher = more Renilla control light
Rule for the call: 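Hit when the z-score averaged over two replicates is under -2 or over +3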
Calls: active = hit: reporter lowered or raised; inactive = not a hit

target	DRSC id	firefly Hh reporter signal, replicate 1	firefly Hh reporter signal, replicate 2	Renilla reference signal, replicate 1	Renilla reference signal, replicate 2	call
kek5	DRSC19438	1.00e5	1.75e5	3673	7344	inactive
Hr3	DRSC06118	36036	12583	1223	1766	active
Hr3	DRSC07441	73476	43584	3314	1984	inactive
Pal2	DRSC04507	70461	62480	1802	6033	inactive
CG32305	DRSC08614	64721	43264	2325	3607	inactive
CG32483	DRSC07902	90480	1.99e5	2598	6854	inactive
CG11672	DRSC14344	71520	98131	3081	2579	inactive
CG42853	DRSC09534	2.22e5		4807		inactive
CG13871	DRSC06430	73869	52928	2387	4473	inactive
ND-B16.6	DRSC18306	95229	4.18e5	3136	12997	inactive
CG11317	DRSC14299	81657	92307	1840	2444	inactive
CG34057	DRSC08375	50864	49269	1780	3124	inactive
CAHbeta	DRSC14449	1.02e5	68733	4390	2722	inactive
CG14893	DRSC15015	94241	1.63e5	2793	4668	inactive
CG3473	DRSC01915	2.32e5	71920	5307	6459	inactive
vilya	DRSC18588	71469	1.63e5	1802	6755	inactive
CG2574	DRSC19862	1.53e5	3.89e5	5828	15177	inactive
CG30222	DRSC04125	67424	39100	1206	3764	inactive
CG30222	DRSC04262	1.19e5	56940	3100	6025	inactive
Obp83cd	DRSC12267	86395	81408	3640	2944	inactive
Obp83a	DRSC12362	65212	93184	2985	3229	inactive
CG32069 + Blos2	DRSC10621	90240	74358	4090	3056	inactive
ry	DRSC17048	97689	1.03e5	3974	4208	inactive

Continued (4 carried over from the part before).
target	DRSC id	firefly Hh reporter signal, replicate 1	firefly Hh reporter signal, replicate 2	Renilla reference signal, replicate 1	Renilla reference signal, replicate 2	call
Obp83cd	DRSC12267	86395	81408	3640	2944	inactive
Obp83a	DRSC12362	65212	93184	2985	3229	inactive
CG32069 + Blos2	DRSC10621	90240	74358	4090	3056	inactive
ry	DRSC17048	97689	1.03e5	3974	4208	inactive
CG11756	DRSC19424	77368	2.31e5	2432	8451	inactive
betaNACtes5	DRSC19100	5.45e5	1.85e5	30635	3524	inactive
CG32815	DRSC18177	1.44e5	3.10e5	5666	10507	inactive
CG32815	DRSC18179	1.12e5	2.29e5	4401	8445	inactive
CG3635	DRSC03729	68326	43050	1900	4004	inactive
COX2 (retired record)	DRSC21276	71392	2.33e5	1672	10009	inactive
CG5265	DRSC15756	61484	83409	1249	5914	inactive
eIF4EHP	DRSC13653	56028	2.43e5	14481	6378	inactive
eIF4EHP	DRSC14265	1.12e5	63162	4630	2698	inactive
CG6966	DRSC16156	58250	86234	1930	2233	inactive
pds5	DRSC06670	66000	46560	2589	1600	inactive
CG15535	DRSC15071	1.04e5	1.10e5	2721	3218	inactive
CG5681	DRSC02876	1.44e5	68020	3286	7690	inactive
nst	DRSC09755	86899	66780	3013	2298	inactive
CG14820	DRSC10191	68007	75605	7005	5097	inactive
Tep4	DRSC03453	70037	64352	1606	4345	inactive
